Experimental data: PMC9464236, “Biochemical characterization of a disease-causing human osteoprotegerin variant” (Scientific Reports, 2022)
Numbering of substitutions follows the chain as printed. These are yes or no findings as the source states them, for the method shown. Some results given as binding are weak or reduced against the parent protein; the word gives no strength.

What was measured:
OPG-Stop402Gln (human) = OPG-Stop402Gln (human) (UniProt O00300); experiment: SDS-PAGE and western blot; culture medium of transfected 293F cells harvested 3 days post transfection, SDS-PAGE, blotted with rabbit anti-OPG polyclonal antibody
OPG-Stop402Tyr (human) = OPG-Stop402Tyr (human) (UniProt O00300); experiment: as above
[1] = biological target: human osteoprotegerin Stop402Leu mutant with a 19-residue C-terminal appendage (OPG^+19) (human) (UniProt O00300); experiment: condition: only reduced with 2-mercaptoethanol (SDS-PAGE); reducing SDS-PAGE; SEC-purified protein reduced with 2-mercaptoethanol, SDS-PAGE, silver staining; both purified

B1: OPG-Stop402Gln (receptor, UniProt O00300 22-401)
chain: ETFPPKYLHYDEETSHQLLCDKCPPGTYLKQHCTAKWKTVCAPCPDHYYTDSWHTSDECLYCSPVCKELQYVKQECNRTHNRVCECKEGRYLEIEFCLKHRSCPPGFGVVQAGTPERNTVCKRCPDGFFSNETSSKAPCRKHTNCSVFGLLLTQKGNATHDNICSGNSESTQKCGIDVTLCEEAFFRFAVPTKFTPNWLSVLVDNLPGTKVNAESVERIKRQHSSQEQTFQLLKLWKHQNKDQDIVKKIIQDIDLCENSVQRHIGHANLTFEQLRSLMESLPGKKVGAEDIEKTIKACKPSDQILKLLSLWRIKNGDQDTLKGLMHALKHSKTYHFPKTVTQSLKKTIRFLHSFTMYKLYQKLFLEMIGNQVQSVKISCLQLEMAIELFPHNWRDPMDE
OPG-Stop402Gln (human)
  binding: binds

B2: OPG-Stop402Tyr (receptor, UniProt O00300 22-401)
chain: B1 chain with Q381Y
OPG-Stop402Tyr (human)
  binding: binds

B3: human osteoprotegerin Stop402Leu mutant with a 19-residue C-terminal appendage (OPG^+19) (receptor)
chain: B1 chain with Q381L
notes: Osteoprotegerin (OPG, TNFRSF11B), human; complete open reading frame, residues up to 401, followed by the read-through appendage; 19-residue appendage 402-420 made by read-through of the mutated stop codon (Stop402Leu); Secreted; Mixture of higher-order oligomers; also called mutant hOPG; mutant OPG; source: 293-freestyle cells, transiently transfected; purified from medium (heparin Sepharose, …)
[1]
  binding: no binding
